PubChem BioAssay AID493246, Drosophila RNAi Screening Center | 2011
Aim: 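Identify essential fly genes by loss of cell viability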 (primary screen). System: Drosophila Kc and S2R+ cells. Knock-down reagent: long dsRNA against Drosophila genes. Detection: 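Cell number per well after knock-down, printed as raw plate values; calls were based on per-plate z-scores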. Scale: Kc cell number and S2R+ cell number: higher = more cells remaining. Call rule: 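Active when the per-plate z-score of cell number is 3 or more in the direction of fewer cells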.
In all, the deposit lists about 21,000 reagents; below is an unselected part of those that have a named target and a result. Over the whole deposit, 429 (2%) are marked active. 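Values are raw and not normalised between plates; calls rest on per-plate z-scores that were not deposited.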 Names joined by + are all predicted targets of the reagent. No sequences are given here. Not stated in the record: the amount of reagent, the time to read-out.

| target gene | dsRNA | Kc cell number, rep 1 | Kc cell number, rep 2 | S2R+ cell number, rep 1 | S2R+ cell number, rep 2 | call |
| --- | --- | --- | --- | --- | --- | --- |
| BORCS5 | DRSC19427 | 6.01e5 | – | 8.90e5 | – | inactive |
| Gr22f | DRSC00076 | 1.56e6 | 1.56e6 | 1.08e6 | 1.24e6 | inactive |
| ERR | DRSC10840 | 1.30e6 | 1.41e6 | 1.36e6 | 1.30e6 | inactive |
| CG8500 | DRSC16434 | 1.63e6 | 1.70e6 | 1.17e6 | 1.22e6 | inactive |
| Fum2 | DRSC18345 | 1.43e6 | 1.45e6 | 9.57e5 | 1.06e6 | inactive |
| CG11159 | DRSC06050 | 1.51e6 | 1.43e6 | 9.61e5 | 1.15e6 | inactive |
| CG31954 | DRSC00580 | 1.58e6 | 1.54e6 | 7.58e5 | 8.55e5 | inactive |
| Mip | DRSC10639 | 1.36e6 | 1.45e6 | 1.06e6 | 1.14e6 | inactive |
| CG11882 | DRSC14425 | 1.43e6 | 1.45e6 | 9.87e5 | 1.15e6 | inactive |
| Pop2 | DRSC10537 | 1.35e6 | 1.35e6 | 1.12e6 | 1.10e6 | inactive |
| wda | DRSC15579 | 1.52e6 | 1.58e6 | 1.11e6 | 1.21e6 | inactive |
| daw | DRSC00479 | 1.31e6 | 1.32e6 | 9.22e5 | 1.01e6 | inactive |
| CG42749 | DRSC18091 | 1.60e6 | 1.60e6 | 1.12e6 | 1.24e6 | inactive |
| CG42749 | DRSC18092 | 1.53e6 | 1.57e6 | 1.14e6 | 1.23e6 | inactive |
| CG13192 | DRSC06317 | 1.54e6 | 1.56e6 | 1.24e6 | 1.39e6 | inactive |
| CG31365 | DRSC15610 | 1.54e6 | 1.58e6 | 1.21e6 | 1.32e6 | inactive |
| CG6163 | DRSC10595 | 1.47e6 | 1.58e6 | 1.40e6 | 1.46e6 | inactive |
| CG1578 | DRSC19729 | 6.11e5 | – | 7.99e5 | – | inactive |
| CG15347 | DRSC18031 | 1.61e6 | 1.60e6 | 1.05e6 | 1.21e6 | inactive |
| CG5550 | DRSC06943 | 1.55e6 | 1.55e6 | 1.11e6 | 1.22e6 | inactive |
| CG42813 + CG42814 | DRSC15939 | 4.96e5 | – | 8.32e5 | – | inactive |
| CG42813 + CG42814 | DRSC15940 | 1.43e6 | 1.45e6 | 9.74e5 | 1.09e6 | inactive |
| Glt | DRSC03333 | 1.07e6 | 1.17e6 | 9.86e5 | 8.91e5 | inactive |
| CG7551 | DRSC10876 | 1.27e6 | 1.35e6 | 1.28e6 | 1.33e6 | inactive |
| Tim17a1 | DRSC14184 | 1.43e6 | 1.47e6 | 1.23e6 | 1.31e6 | inactive |
| Dop1R2 | DRSC13958 | 1.24e6 | 1.55e6 | 1.11e6 | 1.16e6 | inactive |
| Dop1R2 | DRSC15379 | 1.43e6 | 1.45e6 | 9.56e5 | 1.08e6 | inactive |
| CheB38a | DRSC03205 | 1.44e6 | 1.42e6 | 1.10e6 | 1.13e6 | inactive |
| rad (retired record) | DRSC19687 | 1.60e6 | 1.60e6 | 1.01e6 | 1.17e6 | inactive |
| CG10919 | DRSC14283 | 1.44e6 | 1.55e6 | 1.23e6 | 1.33e6 | inactive |
| GstE8 | DRSC06678 | 1.38e6 | 1.51e6 | 1.19e6 | 1.14e6 | inactive |
| kat-60L1 | DRSC12184 | 1.47e6 | 1.53e6 | 1.26e6 | 1.35e6 | inactive |
| CG18649 | DRSC10334 | 1.23e6 | 1.38e6 | 1.24e6 | 1.28e6 | inactive |
| CG32344 | DRSC08578 | 1.40e6 | 1.44e6 | 1.06e6 | 1.16e6 | inactive |
| MED8 | DRSC06426 | 2.03e6 | 1.97e6 | 1.38e6 | 1.68e6 | inactive |
| CG16710 | DRSC15136 | 1.68e6 | 1.74e6 | 9.82e5 | 1.13e6 | inactive |
| Cyp4p3 | DRSC07374 | 1.77e6 | 1.92e6 | 1.31e6 | 1.45e6 | inactive |
| CG42335 | DRSC14597 | 1.30e6 | 1.33e6 | 1.09e6 | 1.17e6 | inactive |
| CG42335 | DRSC15892 | 1.35e6 | 1.32e6 | 1.04e6 | 1.13e6 | inactive |
| Rpn12R | DRSC09842 | 1.68e6 | 1.84e6 | 1.30e6 | 1.46e6 | inactive |
